According to publication PMC7819943, “Rice protein-binding microarrays: a tool to detect cis-acting elements near promoter regions in rice”:
The other results are listed elsewhere or left out.

What follows are sequences tested against T1, OsSMF1 (Oryza sativa, UniProt Q6ZLB0 1-436) (assay: protein-binding microarray (RPBM); PBS, 2% BSA, 51.3 ng/ul salmon testes DNA, 50 uM zinc acetate, 200 nM TF, 25 C, 1 h; high values mean tight binding). Settings: protein: recombinant; tags: N-terminal polyhistidine and DsRed monomer fusion (pET32a); chain copies: 2; label: CyDye5-dUTP incorporated in the synthesized complementary strand; 3' TTTTT single-stranded linker to array surface; dsDNA, one strand shown.
T1 sequence: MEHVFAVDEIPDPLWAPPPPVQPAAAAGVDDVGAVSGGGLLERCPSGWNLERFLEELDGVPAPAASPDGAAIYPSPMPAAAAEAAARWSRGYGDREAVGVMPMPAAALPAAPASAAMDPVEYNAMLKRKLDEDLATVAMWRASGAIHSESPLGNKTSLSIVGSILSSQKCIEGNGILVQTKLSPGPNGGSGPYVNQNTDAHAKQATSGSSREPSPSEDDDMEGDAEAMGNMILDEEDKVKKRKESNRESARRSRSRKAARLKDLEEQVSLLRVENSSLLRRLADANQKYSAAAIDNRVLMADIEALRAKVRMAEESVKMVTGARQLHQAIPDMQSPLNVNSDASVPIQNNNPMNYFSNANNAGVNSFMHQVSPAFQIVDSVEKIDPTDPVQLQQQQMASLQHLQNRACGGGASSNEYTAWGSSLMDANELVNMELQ
How it was run: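 Binding signal here means per-feature fluorescence intensity in arbitrary units. The values were read on an Axon 4000B scanner after a custom Agilent array, double-stranded by primer extension with Cy5-dUTP, was incubated with 200 nM protein at 25 °C for 1 h in PBS with 2% BSA, salmon testes DNA and 50 µM zinc acetate, then washed. The proteins were transcription factors with an N-terminal polyhistidine tag and DsRed, expressed in E. coli BL21-CodonPlus and purified on Ni–NTA.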

| Sequence | binding signal |
| --- | --- |
| CCAGCCGGCGAGGAAGACGGCGAGGGAGGCGGCCATGACGCGGAGTCACCTAGTGCAG | 3330 fluorescence intensity (a.u.) |
| CTGTGAGAGCGAACGTGGTATGATGTAATCGACTTTCTTGCGGAGTCACCTAGTGCAG | 3650 fluorescence intensity (a.u.) |
| CTTACATAAGGGGAATATAATATATACTTACTACTTGATGCGGAGTCACCTAGTGCAG | 3240 fluorescence intensity (a.u.) |
| CTGAGAGGAGGAGGTGGCGGCGGAGCGGCTTGTGCTCGACCGGAGTCACCTAGTGCAG | 17400 fluorescence intensity (a.u.) |
| GTGGTCACCTCTGGACAGCATGAAGCGTACAGGCTACAGCCGGAGTCACCTAGTGCAG | 7410 fluorescence intensity (a.u.) |
| ATCGGGCTTAGCGTCTCCACTCGTGTTCGTGTTGGTTCCTCGGAGTCACCTAGTGCAG | 3360 fluorescence intensity (a.u.) |
| CATATTCCAGACTTCCAGTCATGTGTCCAGTCCAATTGACCGGAGTCACCTAGTGCAG | 3380 fluorescence intensity (a.u.) |
| TCGAATTCCGATGGCGCCCAGCATACACATCAGCCACCAGCGGAGTCACCTAGTGCAG | 6440 fluorescence intensity (a.u.) |
| GTGACATAGTTTTGCGGAGAGAGTATCTGGTTTTCCTGTTCGGAGTCACCTAGTGCAG | 26600 fluorescence intensity (a.u.) |
| CCCGCCACCAAGCACCTATAGTCTCCCGTTGCTGTCAAAGCGGAGTCACCTAGTGCAG | 4210 fluorescence intensity (a.u.) |
| CATGCAAGGGGTGACGTCATGACGAGATACGGAGGGTGGGCGGAGTCACCTAGTGCAG | 16100 fluorescence intensity (a.u.) |
| CCCAGCCCGCTCCACGTCGCCGCGCGCTTCCCCTCCTACGCGGAGTCACCTAGTGCAG | 5540 fluorescence intensity (a.u.) |
| TTCCTCGACAAGATTTTCATGTGGCGTGGAGCGACAGAGACGGAGTCACCTAGTGCAG | 4080 fluorescence intensity (a.u.) |
| TCTCCATAAGAGCACCCACCAACTCAGCCTCTCCTCCCATCGGAGTCACCTAGTGCAG | 3340 fluorescence intensity (a.u.) |
| GGCGATTAGCCAATTGCAGCCTTGGCACCCACGGTAATTCCGGAGTCACCTAGTGCAG | 3690 fluorescence intensity (a.u.) |
| GACTAGAGCATACTGTCATAAGGTATTGTGTTTGCTTGTCCGGAGTCACCTAGTGCAG | 4090 fluorescence intensity (a.u.) |
| GGCCCTCTCAAAATTCTCAATCTGCCACCGCATCAACGAGCGGAGTCACCTAGTGCAG | 3140 fluorescence intensity (a.u.) |
| AATTCTTTCTTGCAAAGAACCCATTTCTGTACTAAGAGTACGGAGTCACCTAGTGCAG | 27600 fluorescence intensity (a.u.) |
| GACGGAGGGAGTACAGGTTATTTCAGGTTACAAAAGTTTGCGGAGTCACCTAGTGCAG | 3270 fluorescence intensity (a.u.) |
| CGGTCCCACCTGTCATACACACATTACGTCTTGGAGTCAGCGGAGTCACCTAGTGCAG | 4220 fluorescence intensity (a.u.) |
| CTTCACCGGCGGCGAGGAGCACGTCACCGGCGGCGAGCACCGGAGTCACCTAGTGCAG | 4120 fluorescence intensity (a.u.) |

Look-ups from the entries so far:
Under binding signal, CTTACATAAGGGGAATATAATATATACTTACTACTTGATGCGGAGTCACCTAGTGCAG is entered as 3240 fluorescence intensity (a.u.)
Under binding signal, CATGCAAGGGGTGACGTCATGACGAGATACGGAGGGTGGGCGGAGTCACCTAGTGCAG is entered as 16100 fluorescence intensity (a.u.)

Next records follow.

| Sequence | binding signal |
| --- | --- |
| AGTAATACTGTACAACGTAGTGGTAGCAGGAGCCGGAAGGCGGAGTCACCTAGTGCAG | 4190 fluorescence intensity (a.u.) |
| ATATGTGGGTCTCATGCTGACTCATCCGCCACGTCAGATACGGAGTCACCTAGTGCAG | 42600 fluorescence intensity (a.u.) |
| CTGAGTGTGTTGCCTGTAGATATCCATGGGCAACCCACATCGGAGTCACCTAGTGCAG | 3350 fluorescence intensity (a.u.) |
| TATCTTCCAAGTAGGAAAATATGCTGACATGGATCTCTTGCGGAGTCACCTAGTGCAG | 5860 fluorescence intensity (a.u.) |
| AAGCGGAACGAATGGTCGGAAACCGAGCGGACAAAACAGCCGGAGTCACCTAGTGCAG | 21700 fluorescence intensity (a.u.) |
| GAAGCCAATTTTAAGTGGTATATAAGAGAGCCGGTTAATTCGGAGTCACCTAGTGCAG | 15100 fluorescence intensity (a.u.) |
| CCATTTGTGCCTGGTCGACATAACACTTCCCAACATCTCACGGAGTCACCTAGTGCAG | 3620 fluorescence intensity (a.u.) |
| GAGAATGCCAGAGCTTACAGTATCTCAATTTATCTAGGAACGGAGTCACCTAGTGCAG | 4090 fluorescence intensity (a.u.) |
| TGAACTACTGCTGCTGCTACTCCATGTCATTTTCTCCCATCGGAGTCACCTAGTGCAG | 3370 fluorescence intensity (a.u.) |
| CATCTTCTCCAATTGATGTGGCTCTCTCATTTGACCATTTCGGAGTCACCTAGTGCAG | 4260 fluorescence intensity (a.u.) |
| ACCCCGCCAAAAGCTCACCTCGTCGTCGTCGTCGTCGTATCGGAGTCACCTAGTGCAG | 3190 fluorescence intensity (a.u.) |
| ATGCTTTGAATTCCAACTCATCATCGACCCTTATGTTGCACGGAGTCACCTAGTGCAG | 6670 fluorescence intensity (a.u.) |
| ATCCAAATTGGCTGTCGGGGCCAGATCACGCTGTGCGCTGCGGAGTCACCTAGTGCAG | 3230 fluorescence intensity (a.u.) |
| TTGGTTAGCTTAGCTGGACCTGTTATCTGTCTGGGAAAGGCGGAGTCACCTAGTGCAG | 3820 fluorescence intensity (a.u.) |
| AAGGTCACTCGCACACATCCAGCCCCAGCCAATAGGTTCCCGGAGTCACCTAGTGCAG | 23400 fluorescence intensity (a.u.) |
| TAAAGCTCAACACACAACCATGTTACATCATCACCCACTACGGAGTCACCTAGTGCAG | 6700 fluorescence intensity (a.u.) |
| CAAGTCCATGTCATCCTCGTTCCTGTGGTGCCCCATGTCGCGGAGTCACCTAGTGCAG | 8040 fluorescence intensity (a.u.) |
| GCGCACACGCCCACGCGCTCCCCTCGCACGCCACCGGACGCGGAGTCACCTAGTGCAG | 3250 fluorescence intensity (a.u.) |
| GCCTTCCAAGTCACCACCAACCCCTCTTTCTTTGATCACCCGGAGTCACCTAGTGCAG | 6820 fluorescence intensity (a.u.) |
| ATCCGCACCGGATCTCGCCGGAGGAGTCAGCCGGCCGCACCGGAGTCACCTAGTGCAG | 3880 fluorescence intensity (a.u.) |
| GGATGGCCCTCTCACGTTCACGTACGCAACGCCGATTCGACGGAGTCACCTAGTGCAG | 3660 fluorescence intensity (a.u.) |
